The supplement of paper PMC12823440, “Inhibitors supercharge kinase turnover through native proteolytic circuits” (Nature, 2025)
Where a name gives a salt, the structure may show the parent alone. Some of the results follow. Hit calls seldom repeat between salt and free forms of one compound.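 Kinases were expressed as nanoluciferase fusions in K562 cells and luminescence was read every 4 h between 2 and 18 h as percent of control, DMSO set to 100% and a positive control to 0%. A time point counts as decreased when the signal drops significantly (2 sigma). The hit call is the authors' own, does not follow from the count of time points alone, and its rule is not shown.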

Chains of the proteins cited; added tags and fusions are not shown. Lines headed by an entry give the natural chain unless they say otherwise; changes in a name come on top.
UniProt P28482, whole entry: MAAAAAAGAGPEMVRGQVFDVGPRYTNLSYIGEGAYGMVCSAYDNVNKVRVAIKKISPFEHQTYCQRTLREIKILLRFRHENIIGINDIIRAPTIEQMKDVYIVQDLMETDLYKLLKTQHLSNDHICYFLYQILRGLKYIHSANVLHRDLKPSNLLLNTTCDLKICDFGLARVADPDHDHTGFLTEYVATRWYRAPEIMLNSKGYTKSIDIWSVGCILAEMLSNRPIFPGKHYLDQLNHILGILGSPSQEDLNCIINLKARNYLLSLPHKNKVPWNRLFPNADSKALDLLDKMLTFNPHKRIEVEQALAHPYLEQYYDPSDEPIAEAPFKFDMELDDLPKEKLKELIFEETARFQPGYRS
UniProt P31152, whole entry: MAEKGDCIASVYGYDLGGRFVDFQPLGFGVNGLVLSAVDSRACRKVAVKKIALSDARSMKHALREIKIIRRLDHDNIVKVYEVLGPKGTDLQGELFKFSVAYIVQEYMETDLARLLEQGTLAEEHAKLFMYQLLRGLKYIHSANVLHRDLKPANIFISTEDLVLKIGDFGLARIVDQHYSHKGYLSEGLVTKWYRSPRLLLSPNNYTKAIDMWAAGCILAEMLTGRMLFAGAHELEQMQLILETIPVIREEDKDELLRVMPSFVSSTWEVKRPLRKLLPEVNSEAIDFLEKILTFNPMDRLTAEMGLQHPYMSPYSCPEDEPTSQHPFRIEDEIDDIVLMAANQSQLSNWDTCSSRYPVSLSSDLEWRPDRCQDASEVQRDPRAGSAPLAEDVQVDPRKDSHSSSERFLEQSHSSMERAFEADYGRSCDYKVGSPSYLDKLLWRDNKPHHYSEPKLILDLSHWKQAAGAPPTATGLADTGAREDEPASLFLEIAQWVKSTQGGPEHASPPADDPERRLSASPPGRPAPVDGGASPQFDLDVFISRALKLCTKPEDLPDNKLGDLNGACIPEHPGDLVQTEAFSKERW
UniProt P49137, whole entry, looked up: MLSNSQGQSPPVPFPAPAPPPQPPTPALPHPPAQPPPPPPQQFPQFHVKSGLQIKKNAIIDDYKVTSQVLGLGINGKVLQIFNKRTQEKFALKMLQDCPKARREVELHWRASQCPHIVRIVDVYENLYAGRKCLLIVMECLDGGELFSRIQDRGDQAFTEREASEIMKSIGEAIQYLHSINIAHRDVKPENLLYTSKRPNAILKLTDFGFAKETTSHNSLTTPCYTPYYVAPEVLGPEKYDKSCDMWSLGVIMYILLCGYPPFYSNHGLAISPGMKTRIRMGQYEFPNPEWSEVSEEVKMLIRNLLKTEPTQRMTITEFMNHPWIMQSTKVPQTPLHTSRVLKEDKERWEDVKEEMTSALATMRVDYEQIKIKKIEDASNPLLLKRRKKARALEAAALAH
UniProt Q9BUB5: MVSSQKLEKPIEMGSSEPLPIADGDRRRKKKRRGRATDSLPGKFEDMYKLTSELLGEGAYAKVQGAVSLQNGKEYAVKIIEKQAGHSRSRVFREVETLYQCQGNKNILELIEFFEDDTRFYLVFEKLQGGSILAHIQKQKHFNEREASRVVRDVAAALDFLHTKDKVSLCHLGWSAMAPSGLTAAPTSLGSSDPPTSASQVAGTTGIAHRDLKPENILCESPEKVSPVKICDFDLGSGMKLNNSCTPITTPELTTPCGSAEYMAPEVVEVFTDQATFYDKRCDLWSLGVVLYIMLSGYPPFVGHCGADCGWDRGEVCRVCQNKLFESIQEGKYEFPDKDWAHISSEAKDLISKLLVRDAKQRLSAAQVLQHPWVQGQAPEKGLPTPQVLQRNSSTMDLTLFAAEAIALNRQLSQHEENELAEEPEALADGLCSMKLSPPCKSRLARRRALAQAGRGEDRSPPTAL
UniProt Q16620, whole entry, looked up: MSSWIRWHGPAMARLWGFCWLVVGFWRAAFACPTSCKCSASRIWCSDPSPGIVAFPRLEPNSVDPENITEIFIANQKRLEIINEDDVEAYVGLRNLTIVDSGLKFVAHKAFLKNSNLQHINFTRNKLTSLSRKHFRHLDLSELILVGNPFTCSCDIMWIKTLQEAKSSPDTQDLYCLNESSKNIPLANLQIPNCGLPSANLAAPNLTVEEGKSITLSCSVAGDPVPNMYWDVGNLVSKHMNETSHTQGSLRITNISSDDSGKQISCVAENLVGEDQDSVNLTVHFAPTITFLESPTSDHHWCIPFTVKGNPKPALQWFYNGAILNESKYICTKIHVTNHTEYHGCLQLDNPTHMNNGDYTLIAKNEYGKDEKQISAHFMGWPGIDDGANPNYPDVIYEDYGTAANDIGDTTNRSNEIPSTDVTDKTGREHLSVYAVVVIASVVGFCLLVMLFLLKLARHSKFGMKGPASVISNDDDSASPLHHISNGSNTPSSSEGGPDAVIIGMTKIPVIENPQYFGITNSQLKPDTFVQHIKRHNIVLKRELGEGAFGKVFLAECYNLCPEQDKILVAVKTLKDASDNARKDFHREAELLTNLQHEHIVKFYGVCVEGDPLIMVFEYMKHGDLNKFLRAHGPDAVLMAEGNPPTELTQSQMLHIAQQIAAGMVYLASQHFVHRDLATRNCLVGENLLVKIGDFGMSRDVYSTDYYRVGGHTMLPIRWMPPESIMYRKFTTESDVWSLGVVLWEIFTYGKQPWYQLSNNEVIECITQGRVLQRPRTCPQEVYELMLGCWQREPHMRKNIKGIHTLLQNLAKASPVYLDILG
UniProt Q16288, whole entry, looked up: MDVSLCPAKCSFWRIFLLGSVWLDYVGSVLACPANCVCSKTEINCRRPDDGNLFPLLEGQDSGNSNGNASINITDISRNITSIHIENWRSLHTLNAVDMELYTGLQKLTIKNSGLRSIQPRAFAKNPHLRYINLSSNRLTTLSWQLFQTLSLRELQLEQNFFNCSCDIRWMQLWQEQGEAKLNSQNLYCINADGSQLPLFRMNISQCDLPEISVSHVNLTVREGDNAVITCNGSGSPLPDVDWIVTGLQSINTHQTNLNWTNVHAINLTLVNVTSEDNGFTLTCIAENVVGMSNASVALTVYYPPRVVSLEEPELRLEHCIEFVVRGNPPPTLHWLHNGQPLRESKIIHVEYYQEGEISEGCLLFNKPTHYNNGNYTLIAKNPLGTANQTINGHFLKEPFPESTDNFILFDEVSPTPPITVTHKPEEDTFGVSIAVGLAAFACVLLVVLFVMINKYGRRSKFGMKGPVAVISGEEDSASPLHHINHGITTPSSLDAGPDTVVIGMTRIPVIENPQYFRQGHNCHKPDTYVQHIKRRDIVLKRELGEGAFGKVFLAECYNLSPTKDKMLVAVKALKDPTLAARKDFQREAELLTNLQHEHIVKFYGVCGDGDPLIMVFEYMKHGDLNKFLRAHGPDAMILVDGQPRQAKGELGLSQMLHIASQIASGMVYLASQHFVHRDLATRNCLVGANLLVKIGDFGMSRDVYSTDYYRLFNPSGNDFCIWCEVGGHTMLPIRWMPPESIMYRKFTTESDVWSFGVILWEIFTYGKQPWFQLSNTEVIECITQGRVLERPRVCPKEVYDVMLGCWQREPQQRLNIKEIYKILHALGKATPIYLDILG
UniProt O96013: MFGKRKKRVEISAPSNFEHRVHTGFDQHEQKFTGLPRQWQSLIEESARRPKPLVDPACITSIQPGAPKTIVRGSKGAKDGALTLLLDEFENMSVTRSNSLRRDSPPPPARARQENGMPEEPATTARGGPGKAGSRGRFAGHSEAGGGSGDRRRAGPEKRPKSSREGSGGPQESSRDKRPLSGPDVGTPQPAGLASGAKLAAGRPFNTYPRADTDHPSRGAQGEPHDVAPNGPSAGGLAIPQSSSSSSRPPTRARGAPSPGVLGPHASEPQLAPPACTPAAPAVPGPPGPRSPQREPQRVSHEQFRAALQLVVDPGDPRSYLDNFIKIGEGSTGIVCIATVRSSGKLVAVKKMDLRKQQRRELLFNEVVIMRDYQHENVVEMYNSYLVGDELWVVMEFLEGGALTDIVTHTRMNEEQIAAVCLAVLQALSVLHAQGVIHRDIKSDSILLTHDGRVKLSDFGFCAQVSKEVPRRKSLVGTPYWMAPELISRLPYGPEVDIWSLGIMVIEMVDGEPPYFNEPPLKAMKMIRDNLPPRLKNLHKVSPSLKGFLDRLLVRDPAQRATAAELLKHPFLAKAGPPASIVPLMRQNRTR
UniProt Q96KB5: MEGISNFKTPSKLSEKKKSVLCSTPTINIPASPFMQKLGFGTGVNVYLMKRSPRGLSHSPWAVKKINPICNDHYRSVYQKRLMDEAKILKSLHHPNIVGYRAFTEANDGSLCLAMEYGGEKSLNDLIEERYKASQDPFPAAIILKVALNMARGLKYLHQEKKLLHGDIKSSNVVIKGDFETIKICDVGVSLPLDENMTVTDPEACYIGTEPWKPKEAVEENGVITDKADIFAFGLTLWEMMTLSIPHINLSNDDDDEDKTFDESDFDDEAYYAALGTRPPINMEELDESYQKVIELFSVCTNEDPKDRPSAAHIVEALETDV
UniProt P09619, whole entry: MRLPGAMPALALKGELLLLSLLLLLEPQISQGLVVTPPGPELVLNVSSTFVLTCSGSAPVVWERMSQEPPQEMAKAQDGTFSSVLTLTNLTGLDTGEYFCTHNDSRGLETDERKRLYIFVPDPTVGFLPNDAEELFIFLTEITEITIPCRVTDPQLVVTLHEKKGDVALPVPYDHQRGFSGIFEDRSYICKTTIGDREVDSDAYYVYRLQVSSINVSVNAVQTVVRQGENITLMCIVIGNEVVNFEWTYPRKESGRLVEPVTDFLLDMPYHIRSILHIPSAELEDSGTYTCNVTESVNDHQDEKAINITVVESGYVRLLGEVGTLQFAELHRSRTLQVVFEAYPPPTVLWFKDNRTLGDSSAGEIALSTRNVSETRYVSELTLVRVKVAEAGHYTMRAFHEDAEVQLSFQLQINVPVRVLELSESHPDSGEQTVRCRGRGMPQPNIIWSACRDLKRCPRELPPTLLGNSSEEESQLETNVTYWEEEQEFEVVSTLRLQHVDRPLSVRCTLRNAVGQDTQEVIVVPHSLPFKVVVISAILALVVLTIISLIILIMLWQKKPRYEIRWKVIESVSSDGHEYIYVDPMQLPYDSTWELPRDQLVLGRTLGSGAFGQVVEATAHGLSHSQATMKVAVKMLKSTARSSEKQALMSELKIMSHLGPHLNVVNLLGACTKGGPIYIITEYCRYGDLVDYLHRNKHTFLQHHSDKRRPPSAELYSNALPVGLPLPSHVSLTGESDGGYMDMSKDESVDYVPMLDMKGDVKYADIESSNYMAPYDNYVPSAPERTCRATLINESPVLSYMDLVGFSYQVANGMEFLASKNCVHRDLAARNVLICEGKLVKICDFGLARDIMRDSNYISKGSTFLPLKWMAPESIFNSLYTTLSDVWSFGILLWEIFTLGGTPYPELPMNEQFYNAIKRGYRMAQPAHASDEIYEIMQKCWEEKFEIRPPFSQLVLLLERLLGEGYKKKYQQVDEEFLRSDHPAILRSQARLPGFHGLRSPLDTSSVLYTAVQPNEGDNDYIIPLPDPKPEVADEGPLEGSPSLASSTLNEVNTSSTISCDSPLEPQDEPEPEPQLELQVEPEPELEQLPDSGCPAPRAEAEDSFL
UniProt Q15118, whole entry, looked up: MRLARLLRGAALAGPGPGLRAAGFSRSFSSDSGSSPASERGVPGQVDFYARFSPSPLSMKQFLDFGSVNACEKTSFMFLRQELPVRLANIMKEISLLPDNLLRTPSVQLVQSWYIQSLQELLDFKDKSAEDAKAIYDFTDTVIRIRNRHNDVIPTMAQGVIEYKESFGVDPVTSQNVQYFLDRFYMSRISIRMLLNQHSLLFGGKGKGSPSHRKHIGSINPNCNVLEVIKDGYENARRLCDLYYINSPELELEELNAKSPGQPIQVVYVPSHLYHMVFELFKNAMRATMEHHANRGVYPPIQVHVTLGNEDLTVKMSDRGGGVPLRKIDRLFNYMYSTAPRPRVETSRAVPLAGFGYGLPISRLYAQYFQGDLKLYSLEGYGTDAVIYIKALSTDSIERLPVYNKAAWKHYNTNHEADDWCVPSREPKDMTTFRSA
UniProt P53350, whole entry: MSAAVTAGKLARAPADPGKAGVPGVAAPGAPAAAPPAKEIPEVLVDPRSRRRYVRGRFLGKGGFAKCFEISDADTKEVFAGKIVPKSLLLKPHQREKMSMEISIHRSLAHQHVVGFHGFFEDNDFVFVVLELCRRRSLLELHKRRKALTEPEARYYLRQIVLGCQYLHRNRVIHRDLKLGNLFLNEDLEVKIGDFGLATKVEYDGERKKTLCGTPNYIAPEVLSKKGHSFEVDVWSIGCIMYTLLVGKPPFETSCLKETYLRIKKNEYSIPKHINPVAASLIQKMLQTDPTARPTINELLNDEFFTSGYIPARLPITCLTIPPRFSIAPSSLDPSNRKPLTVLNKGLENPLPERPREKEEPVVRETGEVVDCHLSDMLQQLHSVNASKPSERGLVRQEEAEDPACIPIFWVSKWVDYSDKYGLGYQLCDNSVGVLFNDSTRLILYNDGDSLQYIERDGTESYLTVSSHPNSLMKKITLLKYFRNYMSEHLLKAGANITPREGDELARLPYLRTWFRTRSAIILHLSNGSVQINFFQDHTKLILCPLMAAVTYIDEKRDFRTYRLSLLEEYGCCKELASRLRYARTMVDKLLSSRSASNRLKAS

What was measured:
Test in all cases: number of time points (of 5) at which kinase-Nluc abundance scored as decreased, DMSO-normalised (count); higher = more persistent destabilization
Conditions in all cases: K562; 2-18 h
LMTK2 = LMTK2 (UniProt Q8IWU2)
LYN = LYN (UniProt P07948)
MAP2K1 = MAP2K1 (UniProt Q02750)
MAP2K2 = MAP2K2 (UniProt P36507)
MAP4K2 = MAP4K2 (UniProt Q12851)
MAPK1 = MAPK1 (UniProt P28482)
MAPK4 = MAPK4 (UniProt P31152)
MAPKAPK2 = MAPKAPK2 (UniProt P49137)
MKNK1 = MKNK1 (UniProt Q9BUB5)
NTRK2 = NTRK2 (UniProt Q16620)
NTRK3 = NTRK3 (UniProt Q16288)
PAK4 = PAK4 (UniProt O96013)
PBK = PBK (UniProt Q96KB5)
PDGFRB = PDGFRB (UniProt P09619)
PDK1 = PDK1 (UniProt Q15118)
PDPK1 = PDPK1 (UniProt O15530)
PIK4CA = PIK4CA (UniProt P42356)
PIK4CB = PIK4CB (UniProt Q9UBF8)
PLK1 = PLK1 (UniProt P53350)
PRKAA1 = PRKAA1 (UniProt Q13131)

Compound	number of time points (LMTK2)	number of time points (LYN)	number of time points (MAP2K1)	number of time points (MAP2K2)	number of time points (MAP4K2)	number of time points (MAPK1)	number of time points (MAPK4)	number of time points (MAPKAPK2)	number of time points (MKNK1)	number of time points (NTRK2)	number of time points (NTRK3)	number of time points (PAK4)	number of time points (PBK)	number of time points (PDGFRB)	number of time points (PDK1)	number of time points (PDPK1)	number of time points (PIK4CA)	number of time points (PIK4CB)	number of time points (PLK1)	number of time points (PRKAA1)
O=C1NC(=O)/C(=C\c2c[nH]c(=O)c(-c3ccc(N4CCNCC4)nc3)c2)S1 [Protein kinase inhibitors 1 hydrochloride] (10 µM)	0	0	0	0	0	0	0	0	0	0	0	0	0	0	0	0	0	0	0	0
c1nc2c(NC3CCCCC3)nc(Nc3ccc(N4CCOCC4)cc3)nc2[nH]1 [Reversine] (10 µM)	0	0	0	0	0	0	0	0	0	0	0	0	0	0	0	1	0	0	2	2
NC(=O)c1cnc(-c2ccc(C3(N)CCC3)cc2)c(-c2ccccc2)c1 (10 µM)	0	0	0	0	0	0	0	0	0	0	0	0	0	0	0	0	0	0	0	0
COc1cc2c(cc1O)C[C@H]1c3cc(O)c(OC)cc3CC[N@@+]1(C)C2 [Phellodendrine] (10 µM)	0	0	0	0	0	0	0	0	0	0	0	0	0	0	0	0	0	0	0	0
Cc1c(Cl)cccc1S(=O)(=O)Nc1nc(NCCc2ccccc2)nc2c1CN(Cc1ccccc1)CC2 (2.5 µM)	0	0	0	0	0	0	0	0	0	0	0	0	0	0	0	0	0	0	0	0
CNC(=O)CNc1cnc2ccc(-c3ccc(OC)c(OC)c3)cc2n1 (10 µM)	0	0	0	0	0	0	0	0	0	0	0	0	0	0	0	0	0	0	0	0
Cc1cc(C(=O)Nc2nc3cccc(Cl)c3n2[C@@H]2CCCCN(C(=O)/C=C/CN(C)C)C2)ccn1 [Nazartinib] (10 µM)	0	0	0	0	0	0	0	0	0	0	0	0	0	0	0	0	0	0	0	0
CCCCCC(=O)N[C@@H](Cc1ccc(O)cc1)C(=O)OC (10 µM)	0	0	0	0	0	0	0	0	0	0	0	0	0	0	0	0	0	0	0	0
N#Cc1cnc2c(Cl)cc(NCc3cn(CCN4CCCCCC4)nn3)cc2c1Nc1ccc(F)c(Cl)c1 [Cot inhibitor-1] (10 µM)	0	0	0	0	0	0	0	0	0	0	0	0	0	0	0	0	0	0	0	0
CC1CN(CC2CCN(Cc3ccccc3)CC2)C(=O)N(c2cccc(C(=N)N)c2)C1 (stereo not given) (10 µM)	0	0	0	0	0	0	0	0	0	0	0	0	0	0	0	0	0	0	0	0
N#C/C(=C\c1ccc(O)c(O)c1)C(=O)O [Tyrphostin AG30] (10 µM)	0	0	0	0	0	0	0	0	0	0	0	0	0	0	0	0	0	0	0	0
CCNC(=O)C#Cc1ccc2c(C(=Nc3ccc(CN(C)C)cc3)c3ccccc3)c(O)[nH]c2c1 (2.5 µM)	0	0	0	0	0	0	0	0	0	0	0	0	0	0	0	0	0	0	0	0
CNC(=O)c1cc2c(Oc3ccc(NC(=O)C4(C(=O)Nc5ccc(F)cc5)CC4)cc3)ccnc2cc1OC (2.5 µM)	0	0	0	0	0	0	0	1	2	1	1	0	0	4	0	4	2	1	3	2
COc1ccc2c(Oc3ccc4c(C(=O)Nc5ccccc5N)cccc4c3)ccnc2c1 [Chiauranib] (10 µM)	0	0	0	0	0	0	0	0	0	0	0	0	0	4	0	0	4	0	0	0
CC(C)n1c([C@H](C)Nc2ncnc(N)c2C#N)cc2cccc(-c3ccc(=O)n(C)c3)c2c1=O (10 µM)	0	0	0	0	0	0	0	0	0	0	0	0	0	0	0	0	0	0	0	0
Cc1nc[nH]c1CN1CCN(C(=O)N[C@@H](CC(C)C)C(=O)O)[C@@H](Cc2ccccc2)C1=O (10 µM)	0	0	0	0	0	0	0	0	0	0	0	0	0	0	0	0	0	0	0	0
O=C1OC(/C=C/c2ccccc2)=NC/1=C\c1cccnc1 (10 µM)	0	0	0	0	0	0	0	0	0	0	0	0	0	0	0	0	0	0	0	0
O=C(O)[C@H]1O[C@@H](Oc2cc3oc(-c4ccc(O)cc4)cc(=O)c3c(O)c2O)[C@H](O)[C@@H](O)[C@@H]1O [Scutellarin] (10 µM)	0	0	0	0	0	0	0	0	0	0	0	0	0	0	0	0	0	0	0	0
Nc1ncc(-c2ccnc(Nc3ccncc3)n2)c(CC2CC2)n1 (10 µM)	3	0	0	0	0	0	0	0	0	0	0	0	0	0	0	2	0	0	1	0
O=C(Nc1ccc(Cl)cc1)C1CCCN(C(=O)c2cc(C(F)(F)F)cc(C(F)(F)F)c2)C1 (stereo not given) (10 µM)	0	0	0	0	0	0	0	0	0	0	0	0	0	0	0	0	0	0	0	0
Cc1cc(Nc2cc(N3CCN(C)CC3)nc(Nc3ccc([N+](=O)[O-])cc3)n2)n[nH]1 (2.5 µM)	0	0	0	0	0	0	0	0	0	0	0	0	0	4	0	0	0	0	0	0
Nc1nccc(-c2c(-c3ccc(F)cc3)ncn2C2CCCCC2)n1 (10 µM)	0	0	0	0	0	0	0	0	2	0	0	0	0	0	0	0	0	0	0	0

As entered above:
number of time points (PAK4) with CCNC(=O)C#Cc1ccc2c(C(=Nc3ccc(CN(C)C)cc3)c3ccccc3)c(O)[nH]c2c1 (2.5 µM) reads 0
number of time points (MAP2K1) with N#C/C(=C\c1ccc(O)c(O)c1)C(=O)O [Tyrphostin AG30] (10 µM) reads 0
